Library screen at single concentrations

A: 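Whole-cell growth test on Mycobacterium tuberculosis, read after 4 days in a medium based on cholesterol and the lipid DPPC; the read-out is not stated. Concentration: 50 µM. Direction is inferred from retests: higher values go with more growth inhibition. Size under these conditions: about 69,000 compounds, about 370 of them at 50% or above in at least one test.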
B: 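Whole-cell growth test on Mycobacterium tuberculosis, read after 3 days in glucose-containing 7H9 medium; the read-out is not stated. Concentration: 50 µM. Higher reads as more growth inhibition (inferred: compounds with an IC50 in retests scored well above the rest). About 69,000 compounds were tested under these conditions; 1.1% (about 760) showed 50% or more at least once.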

Each number is a percent effect as filed. The record does not define 0% and 100%; most values in the screen are far below 50% and negative numbers occur (in some assays of this library far below -100). This is an unselected part of the compounds tested. Two or more numbers in one place are separate tests of the same structure; such repeats can differ widely.

| structure | A | B |
|---|---|---|
| `Cc1occc1C(=O)Nc1cccc(C(=O)OCC2CCCN2)c1.Cl` (stereo unspecified) | 7.661% | 7.758% & 18.86% |
| `Cn1cc(CNC(=O)C2CCCN(Cc3cccc(F)c3)C2)cn1` (stereo unspecified) | -12.52% | -37.8% & 4.216% |
| `O=C(O)C(F)(F)F.[H][C@@]12CN(Cc3nccn3C)C[C@@]1([H])N(Cc1cccc(C)c1)C(=O)CO2` | -11.53% & 3.408% | -9.75% |
| `CC(C)N(C)C(=O)c1ccc(Cl)c(NC(=O)COCC2CC2)c1` | 11.66% | 31.26% |
| `CSCCNc1ccc(C(=O)N(C)Cc2ccc3ccccc3n2)cn1` | 3.64% | 16.47% |
| `CC(C)CN1CCC(NC(=O)c2ccc(F)cc2Cl)CC1` | 2.241% | -6.716% |
| `CCc1cc(N2CCC(Nc3ccc4nnc(C)n4n3)CC2)ncn1` | -6.383% & -11.71% | -10.06% |
| `CCc1cnc(CN(C)C2CCN(CCc3ccccn3)C2)o1` (stereo unspecified) | -18.38% | -6.401% & -5.793% |
| `Cn1cc(CN2CCC3(CCCCN3S(C)(=O)=O)CC2)cn1` | -17.7% | 5.309% |
| `Cc1cc2c(=O)n3c(nc2s1)CCN(Cc1cnn(C)c1C)CC3.Cl` | -7.565% | 13.58% |
| `Cc1ccc(C(=O)NCCS(=O)(=O)N2CCSCC2)o1` | -8.744% | 7.724% |
| `Cc1ccc(-c2nc(C3CCN(C(=O)c4cnn(C)c4)CC3)no2)cn1` | 28.08% & 10.91% | 9.947% |
| `O=C(O)C(F)(F)F.O=C(O)C(F)(F)F.O=C(c1ccccn1)N1Cc2nccn2CC(CN2CCOCC2)C1` (stereo unspecified) | -29.95% | -6.261% |
| `CCc1nc(CN(C)C2CCN(CCc3ccncc3)C2)no1` (stereo unspecified) | -16.28% | -46.56% |
| `Cc1nn(-c2ccccn2)c2c1C(c1cnn(C)c1)SCC(=O)N2` (stereo unspecified) | -14.99% | -7.111% |
| `O=C(N1CCCCC1)N1CCCC1c1nnc2n1CCNC2` (stereo unspecified) | 4.45% | 22.54% |
| `COc1c(C2CCCN2C(=O)c2ccnc(N(C)C)c2)c(C)nn1C` (stereo unspecified) | -7.231% | 0.6909% |
| `Cc1cc(CNC(=O)NCCOc2ccc(F)c(F)c2)on1` | 12.03% | 3.169% & -3.68% |
| `Cc1ccc(O)c(C(=O)N2CCC3(CCCNC3)C2)c1` (stereo unspecified) | 18.29% | 13.63% |
| `CC(C)C(Sc1ccccc1)C(=O)N(C)Cc1nnc2n1CCC2` (stereo unspecified) | -13.53% | -48.72% |
| `CCc1ccc(CN2Cc3nccn3CC(CN3CCOCC3)C2)o1.O=C(O)C(F)(F)F.O=C(O)C(F)(F)F.O=C(O)C(F)(F)F` (stereo unspecified) | -5.362% | -0.5254% |
| `Cc1ccoc1C(=O)N1CC(C(=O)NCC2CC2)C2(CCOCC2)C1` (stereo unspecified) | -25.96% & -7.697% | 30.52% & 2.737% |
| `CC(C)C(C)(CNC(=O)OC(C)(C)C)NC(=O)c1cnccn1` (stereo unspecified) | 24.93% | 19.84% |
| `O=C(c1nc2c(s1)CCCN2C(=O)C1CC1)N1CCOCC1` | 16.04% | 17.38% & 0.4696% |
| `O=C(O)C1(Cc2cccc(-c3ccc(F)c(F)c3)c2)CCOCC1` | -4.624% | -5.89% |
| `CN1CCCC2(CCN(c3cccc(C(F)(F)F)n3)C2)C1=O` (stereo unspecified) | 5.312% | 7.476% & 8.364% |
| `O=C(Cn1nc(N2CCOCC2)ccc1=O)Nc1nccs1` | -8.125% | -5.928% & -25.79% |
| `COc1cccc(COCC(O)CN(C)c2ccc(C)cc2C)c1` (stereo unspecified) | 20.39% | 32.05% & 27.27% |
| `CC(C)C[C@@H](CO)n1cc(-c2cncnc2)nn1` | -27.19% | -15.61% |
| `CCOc1ncccc1CNC(=O)N1CCCC1c1ccncc1` (stereo unspecified) | 1.149% | 9.703% |
| `c1nc2c(c(N3CCCC(Cn4cncn4)C3)n1)CCC2` (stereo unspecified) | 10.24% | 14.15% & -0.5722% |
| `CSCc1noc(CN(C)C(C)c2nc(C)sc2C)n1` (stereo unspecified) | -22.14% | -2.441% |
| `Cn1nc(C(=O)NCCc2ccc(OC3CCCC3)cc2)ccc1=O` | -2.843% | -31.13% |
| `CCCN(Cc1ccccc1O)S(=O)(=O)N(C)CC` | -1.847% | -14.11% |
| `Cc1cc(Nc2ccc3c(c2)CC(=O)N3)nc(C(C)C)n1` | 8.407% & -6.13% | -63.49% |
| `CN(C)C(=O)CN1CCOCC2(CCN(CC3CCOC3)CC2)C1.O=C(O)C(F)(F)F.O=C(O)C(F)(F)F` (stereo unspecified) | -23% | -3.021% & -24.2% |
| `O=C(O)C(F)(F)F.O=C(c1ccccc1F)N1CCCn2c(CN3CCCCC3)nnc2C1` | -42.78% & -2.804% | -50.1% |
| `O=C(O)C(F)(F)F.[H][C@]12CCC[C@@]1(COCc1ccccn1)CN(C(=O)c1ccc(F)cc1)C2` | 10.26% | 17.19% |
| `CCC[C@H]1CN(CCS(C)(=O)=O)C[C@@H]1NC(=O)c1ccn(C)n1` | -18.44% | 9.986% |
| `Oc1cc(CN2CCC(O)(Cn3ccnc3)CC2)nc2c(Cl)cccc12` | 13.25% | -20% |
| `O=C(C1CC1)N1CCC(C(=O)N2CCC(c3ccc(F)cc3)C2)CC1` (stereo unspecified) | -7.964% | -45.21% |
| `CC1(c2ccccc2)CCCN(Cc2cncn2C2CCCC2)C1` (stereo unspecified) | 86.27% | 70.77% |
| `CNS(=O)(=O)Cc1ccc(CNc2cncc(-n3cccn3)n2)cc1` | -7.951% | 35.26% |
| `Cl.[H][C@@]12CCN(C3CCCC3)C[C@]1([H])[C@@H](c1ccsc1)CN2C(=O)C(C)(C)C` | 3.068% | 0.00374% |
| `Cc1nc[nH]c1CN(Cc1ccccc1F)C1CC(C)(C)NC(C)(C)C1.O=C(O)CC(O)(CC(=O)O)C(=O)O` | 13.65% & 16.08% | 7.972% |
| `CCN1CC2(CCCCN2C(=O)c2ccsc2)CC1=O` (stereo unspecified) | -11.81% & -7.781% | -3.76% |
| `CCC(CC)c1cc(CNC(=O)N2CCOCC2CC)on1` (stereo unspecified) | -0.1548% | 13.97% |
| `O=C(c1ccc2cc[nH]c2c1)N1CCCN(Cc2cscn2)CC1` | -1.033% | -9.026% |
| `[H][C@@]12CN(Cc3ccccc3Cl)CC[C@]1([H])N(C(C)=O)C[C@H]2c1ccsc1` | -2.095% | 39.1% |
| `Cc1cc(C)c(CNC(=O)NCCC2CCCO2)c(=O)[nH]1` (stereo unspecified) | -14.77% | 2.796% |
| `Fc1cnc(N2CCCC3(CCN(Cc4ccsc4)C3)C2)nc1.O=C(O)C(F)(F)F.O=C(O)C(F)(F)F` (stereo unspecified) | -14.53% | -12.92% |
| `CCC(NC(=O)C1CCN(S(C)(=O)=O)CC1)c1ccc(OC)c(C)c1` (stereo unspecified) | 1.819% | 14.61% |

The first 3 entries again:

Cc1occc1C(=O)Nc1cccc(C(=O)OCC2CCCN2)c1.Cl (stereo unspecified) read A: 7.661%; B: 7.758% & 18.86%.
Cn1cc(CNC(=O)C2CCCN(Cc3cccc(F)c3)C2)cn1 (stereo unspecified) read A: -12.52%; B: -37.8% & 4.216%.
O=C(O)C(F)(F)F.[H][C@@]12CN(Cc3nccn3C)C[C@@]1([H])N(Cc1cccc(C)c1)C(=O)CO2 read A: -11.53% & 3.408%; B: -9.75%.

Data taken from ChEMBL document CHEMBL3988442, “University of Dundee, Small-Polar-MMV Screening Library” (2021).